Patent EP2801357A1, “Carboxylated stilbenes for activating AMPK and sirtuins” (IMD Natural Solutions GmbH, priority 2013, dated 2014)

System: 5'-AMP-activated protein kinase (AMPK)
Test: Western blot analysis of AMPK phosphorylation in NHEK
Type: cell-based, human
Conditions: 48 h, loading control

## CCOC(=O)c1c(O)cccc1/C=C/c1ccc(OCC)cc1 [(I-1)]
Experiment 1, Membrane 1, 3 µM
  GAPDH: 480 AU/mm^2
Experiment 1, Membrane 1, 10 µM
  GAPDH: 528 AU/mm^2
Experiment 1, Membrane 1, 30 µM
  GAPDH: 599 AU/mm^2

## NC(=O)c1ncn([C@@H]2O[C@H](CO)[C@@H](O)[C@H]2O)c1N [AICAR, 5-Amino-1-ß-D-ribofuranosyl-imidazole-4-carboxamide]
Experiment 1, Membrane 1, 1000 µM
  GAPDH: 518 AU/mm^2
Experiment 2, 1000 µM
  GAPDH: 2406346 AU/mm^2

## Oc1ccc(/C=C/c2cc(O)cc(O)c2)cc1 [trans-resveratrol]
Experiment 1, Membrane 2, 300 µM
  GAPDH: 282 AU/mm^2
Experiment 2, 10 µM
  GAPDH: 2511753 AU/mm^2
Experiment 2, 30 µM
  GAPDH: 2177595 AU/mm^2
Experiment 2, 100 µM
  GAPDH: 2479461 AU/mm^2
Experiment 2, 200 µM
  GAPDH: 2561347 AU/mm^2
Experiment 2, 300 µM
  GAPDH: 2912376 AU/mm^2
